Source: the supplement of paper PMC11438910
Some of the results follow. The signal is at background level for most entries.

Tests used:
Assay in all cases: fluorescence intensity of antibody binding to polysaccharide-coupled beads; higher = stronger binding
[1] = molecular target: pneumococcal polysaccharide Pn38
Protocol: (§1)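 Recombinant rhesus-murine chimeric IgG1 antibodies were tested against antigen-coupled MagPlex beads in a 96-plex Luminex direct immunoassay (dLIA). The beads carried pneumococcal capsular polysaccharides of 93 serotypes plus C-polysaccharides. Antibody was added at 0.1–12,500 ng/mL for 1 h, then PE anti-mouse IgG, and net MFI was read on a Bio-Plex 3D. Only the rhesus variable regions are printed; constant regions are murine IgG1/kappa/lambda, and the signal peptide is MGWSCIILFLVATATGVHS.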

[2] = molecular target: pneumococcal polysaccharide Pn39
Protocol: as §1

[3] = molecular target: pneumococcal polysaccharide Pn4
Protocol: as §1

[4] = molecular target: pneumococcal polysaccharide Pn40
Protocol: as §1

[5] = molecular target: pneumococcal polysaccharide Pn41A
Protocol: as §1

[6] = molecular target: pneumococcal polysaccharide Pn41F
Protocol: as §1

[7] = molecular target: pneumococcal polysaccharide Pn42
Protocol: as §1

[8] = molecular target: pneumococcal polysaccharide Pn43
Protocol: as §1

[9] = molecular target: pneumococcal polysaccharide Pn44
Protocol: as §1

[10] = molecular target: pneumococcal polysaccharide Pn45
Protocol: as §1

[11] = molecular target: pneumococcal polysaccharide Pn46
Protocol: as §1

[12] = molecular target: pneumococcal polysaccharide Pn47A
Protocol: as §1

[13] = molecular target: pneumococcal polysaccharide Pn47F
Protocol: as §1

[14] = molecular target: pneumococcal polysaccharide Pn48
Protocol: as §1

[15] = molecular target: pneumococcal polysaccharide Pn5
Protocol: as §1

[16] = molecular target: pneumococcal polysaccharide Pn6A
Protocol: as §1

[17] = molecular target: pneumococcal polysaccharide Pn6B
Protocol: as §1

[18] = molecular target: pneumococcal polysaccharide Pn6C
Protocol: as §1

[19] = molecular target: pneumococcal polysaccharide Pn6D
Protocol: as §1

[20] = molecular target: pneumococcal polysaccharide Pn7A
Protocol: as §1

[21] = molecular target: pneumococcal polysaccharide Pn7B
Protocol: as §1

[22] = molecular target: pneumococcal polysaccharide Pn7C
Protocol: as §1

[23] = molecular target: pneumococcal polysaccharide Pn7F
Protocol: as §1

[24] = antibody concentration 81.7561 ng/mL
[25] = antibody concentration 437.17 ng/mL
[26] = antibody concentration 2337.65 ng/mL
[27] = antibody concentration 12500 ng/mL
[28] = antibody concentration 0.1 ng/mL
[29] = antibody concentration 0.534724 ng/mL
[30] = antibody concentration 2.8593 ng/mL
[31] = antibody concentration 15.2894 ng/mL

B1: 4-173.1 (protein)
chain 1: QLQLQESGPGLVKPSETLSLTCAVSGASISSNYWSWIRQAPGKGLEWIGRISGSSGSTDYNPSLKSRVTISTDTSKNQFSLKLNSVTAADTAVYYCARVSYWGHYGDYWGQGVLVTVSS
chain 2: QPVLTQPSSHSASPGAPARLTCTLSSGFSVGDFWIRWYQQKPGSPPRYLLYYHSDSDKHQGSGVPSRFSGSNDASANAGILHISGLQPEDEADYYCCTWHGNSKTQIFGAGTRLTVL
fluorescence intensity [1, 24]: 27.8 MFI | fluorescence intensity [1, 25]: 26 MFI | fluorescence intensity [1, 26]: 29 MFI | fluorescence intensity [1, 27]: 33.8 MFI | fluorescence intensity [2, 28]: 19.5 MFI | fluorescence intensity [2, 29]: 19.8 MFI | fluorescence intensity [2, 30]: 19.2 MFI | fluorescence intensity [2, 31]: 19.5 MFI | fluorescence intensity [2, 24]: 17.8 MFI | fluorescence intensity [2, 25]: 18.8 MFI | fluorescence intensity [2, 26]: 21.5 MFI | fluorescence intensity [2, 27]: 27.2 MFI | fluorescence intensity [3, 28]: 18.5 MFI | fluorescence intensity [3, 29]: 18.5 MFI | fluorescence intensity [3, 30]: 19 MFI | fluorescence intensity [3, 31]: 19 MFI | fluorescence intensity [3, 24]: 19 MFI | fluorescence intensity [3, 25]: 20.5 MFI | fluorescence intensity [3, 26]: 22.5 MFI | fluorescence intensity [3, 27]: 30.5 MFI | fluorescence intensity [4, 28]: 16.5 MFI | fluorescence intensity [4, 29]: 16.8 MFI | fluorescence intensity [4, 30]: 17.5 MFI | fluorescence intensity [4, 31]: 17 MFI | fluorescence intensity [4, 24]: 18.5 MFI | fluorescence intensity [4, 25]: 17.5 MFI | fluorescence intensity [4, 26]: 19 MFI | fluorescence intensity [4, 27]: 32.5 MFI | fluorescence intensity [5, 28]: 23.5 MFI | fluorescence intensity [5, 29]: 25 MFI | fluorescence intensity [5, 30]: 24.5 MFI | fluorescence intensity [5, 31]: 23 MFI | fluorescence intensity [5, 24]: 24.5 MFI | fluorescence intensity [5, 25]: 23 MFI | fluorescence intensity [5, 26]: 25.5 MFI | fluorescence intensity [5, 27]: 28.2 MFI | fluorescence intensity [6, 28]: 13 MFI | fluorescence intensity [6, 29]: 13.2 MFI | fluorescence intensity [6, 30]: 12.5 MFI | fluorescence intensity [6, 31]: 12.5 MFI | fluorescence intensity [6, 24]: 12.2 MFI | fluorescence intensity [6, 25]: 13 MFI | fluorescence intensity [6, 26]: 15.5 MFI | fluorescence intensity [6, 27]: 19.2 MFI | fluorescence intensity [7, 28]: 11.5 MFI | fluorescence intensity [7, 29]: 12 MFI | fluorescence intensity [7, 30]: 12 MFI | fluorescence intensity [7, 31]: 12.5 MFI | fluorescence intensity [7, 24]: 13 MFI | fluorescence intensity [7, 25]: 12.5 MFI | fluorescence intensity [7, 26]: 13.2 MFI | fluorescence intensity [7, 27]: 18.5 MFI | fluorescence intensity [8, 28]: 16.5 MFI | fluorescence intensity [8, 29]: 15.5 MFI | fluorescence intensity [8, 30]: 16.5 MFI | fluorescence intensity [8, 31]: 15.5 MFI | fluorescence intensity [8, 24]: 17 MFI | fluorescence intensity [8, 25]: 17.2 MFI | fluorescence intensity [8, 26]: 21 MFI | fluorescence intensity [8, 27]: 53 MFI | fluorescence intensity [9, 28]: 24.5 MFI | fluorescence intensity [9, 29]: 25.5 MFI | fluorescence intensity [9, 30]: 25.5 MFI | fluorescence intensity [9, 31]: 25 MFI | fluorescence intensity [9, 24]: 26 MFI | fluorescence intensity [9, 25]: 26 MFI | fluorescence intensity [9, 26]: 28 MFI | fluorescence intensity [9, 27]: 31 MFI | fluorescence intensity [10, 28]: 11.5 MFI | fluorescence intensity [10, 29]: 11.8 MFI | fluorescence intensity [10, 30]: 12 MFI | fluorescence intensity [10, 31]: 11.8 MFI | fluorescence intensity [10, 24]: 10.5 MFI | fluorescence intensity [10, 25]: 11.2 MFI | fluorescence intensity [10, 26]: 11.5 MFI | fluorescence intensity [10, 27]: 15.5 MFI | fluorescence intensity [11, 28]: 24 MFI | fluorescence intensity [11, 29]: 24 MFI | fluorescence intensity [11, 30]: 25.5 MFI | fluorescence intensity [11, 31]: 24.5 MFI | fluorescence intensity [11, 24]: 26.5 MFI | fluorescence intensity [11, 25]: 25.5 MFI | fluorescence intensity [11, 26]: 27.8 MFI | fluorescence intensity [11, 27]: 38 MFI | fluorescence intensity [12, 28]: 17 MFI | fluorescence intensity [12, 29]: 17 MFI | fluorescence intensity [12, 30]: 16.5 MFI | fluorescence intensity [12, 31]: 16.5 MFI | fluorescence intensity [12, 24]: 16 MFI | fluorescence intensity [12, 25]: 16.5 MFI | fluorescence intensity [12, 26]: 18.2 MFI | fluorescence intensity [12, 27]: 20 MFI | fluorescence intensity [13, 28]: 12.5 MFI | fluorescence intensity [13, 29]: 12.5 MFI | fluorescence intensity [13, 30]: 13 MFI | fluorescence intensity [13, 31]: 12.5 MFI | fluorescence intensity [13, 24]: 13.5 MFI | fluorescence intensity [13, 25]: 12.5 MFI | fluorescence intensity [13, 26]: 14.8 MFI | fluorescence intensity [13, 27]: 22.5 MFI | fluorescence intensity [14, 28]: 21 MFI | fluorescence intensity [14, 29]: 20.5 MFI | fluorescence intensity [14, 30]: 20.5 MFI | fluorescence intensity [14, 31]: 23 MFI | fluorescence intensity [14, 24]: 21.2 MFI | fluorescence intensity [14, 25]: 23.5 MFI | fluorescence intensity [14, 26]: 24.8 MFI | fluorescence intensity [14, 27]: 35.5 MFI | fluorescence intensity [15, 28]: 9.5 MFI | fluorescence intensity [15, 29]: 9.5 MFI | fluorescence intensity [15, 30]: 10.5 MFI | fluorescence intensity [15, 31]: 9 MFI | fluorescence intensity [15, 24]: 9.5 MFI | fluorescence intensity [15, 25]: 10 MFI | fluorescence intensity [15, 26]: 12.5 MFI | fluorescence intensity [15, 27]: 24 MFI | fluorescence intensity [16, 28]: 22 MFI | fluorescence intensity [16, 29]: 22 MFI | fluorescence intensity [16, 30]: 22.5 MFI | fluorescence intensity [16, 31]: 21.2 MFI | fluorescence intensity [16, 24]: 22 MFI | fluorescence intensity [16, 25]: 23.5 MFI | fluorescence intensity [16, 26]: 24 MFI | fluorescence intensity [16, 27]: 30.8 MFI | fluorescence intensity [17, 28]: 19 MFI | fluorescence intensity [17, 29]: 20.8 MFI | fluorescence intensity [17, 30]: 21.8 MFI | fluorescence intensity [17, 31]: 19.2 MFI | fluorescence intensity [17, 24]: 20 MFI | fluorescence intensity [17, 25]: 22 MFI | fluorescence intensity [17, 26]: 23.2 MFI | fluorescence intensity [17, 27]: 30 MFI | fluorescence intensity [18, 28]: 26.5 MFI | fluorescence intensity [18, 29]: 43 MFI | fluorescence intensity [18, 30]: 71 MFI | fluorescence intensity [18, 31]: 70.8 MFI | fluorescence intensity [18, 24]: 77.8 MFI | fluorescence intensity [18, 25]: 63 MFI | fluorescence intensity [18, 26]: 90.2 MFI | fluorescence intensity [18, 27]: 88.5 MFI | fluorescence intensity [19, 28]: 16.5 MFI | fluorescence intensity [19, 29]: 18.5 MFI | fluorescence intensity [19, 30]: 15.5 MFI | fluorescence intensity [19, 31]: 17.8 MFI | fluorescence intensity [19, 24]: 17 MFI | fluorescence intensity [19, 25]: 15.2 MFI | fluorescence intensity [19, 26]: 18.8 MFI | fluorescence intensity [19, 27]: 22.8 MFI | fluorescence intensity [20, 28]: 21 MFI | fluorescence intensity [20, 29]: 19.5 MFI | fluorescence intensity [20, 30]: 21.5 MFI | fluorescence intensity [20, 31]: 20.8 MFI | fluorescence intensity [20, 24]: 20 MFI | fluorescence intensity [20, 25]: 23.2 MFI | fluorescence intensity [20, 26]: 27.2 MFI | fluorescence intensity [20, 27]: 81.5 MFI | fluorescence intensity [21, 28]: 16.5 MFI | fluorescence intensity [21, 29]: 17 MFI | fluorescence intensity [21, 30]: 18.2 MFI | fluorescence intensity [21, 31]: 17.5 MFI | fluorescence intensity [21, 24]: 16.8 MFI | fluorescence intensity [21, 25]: 16.5 MFI | fluorescence intensity [21, 26]: 19.2 MFI | fluorescence intensity [21, 27]: 28 MFI | fluorescence intensity [22, 28]: 16.5 MFI | fluorescence intensity [22, 29]: 17.5 MFI | fluorescence intensity [22, 30]: 20.2 MFI | fluorescence intensity [22, 31]: 16 MFI | fluorescence intensity [22, 24]: 17.5 MFI | fluorescence intensity [22, 25]: 18 MFI | fluorescence intensity [22, 26]: 17.5 MFI | fluorescence intensity [22, 27]: 25 MFI | fluorescence intensity [23, 28]: 14 MFI | fluorescence intensity [23, 29]: 15.5 MFI | fluorescence intensity [23, 30]: 15.5 MFI | fluorescence intensity [23, 31]: 15.5 MFI | fluorescence intensity [23, 24]: 16 MFI | fluorescence intensity [23, 25]: 17 MFI | fluorescence intensity [23, 26]: 20.5 MFI | fluorescence intensity [23, 27]: 52.2 MFI
